Measurements reported in PubChem BioAssay AID1259254 (NCATS, 2017)

Test: 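Genome-wide screen for genes that prevent DNA re-replication in cancer cells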 (primary screen)
Cell system: human HCT116 colorectal cancer cells
Reagents: single siRNA against human genes
Duration: 3 days
Measured: 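Imaged Hoechst DNA stain sorts each cell into a cycle phase by DNA amount; per plate, G2 fraction set to 0% for non-targeting and 100% for GMNN siRNA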
Reading the numbers: G2 robust z-score and G2 cells, % of GMNN control: higher = more G2 cells, more excess DNA replication; raw share of cells in G2: higher = larger share of cells with G2 DNA content
Active means: 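An siRNA counts as active if its G2 robust z-score lies at least 5 MADs above the screen median; here such calls match roughly 38% of GMNN control or more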
The whole screen tested about 59,000 reagents; shown is a random part of them. Of all reagents, about 1,550 (2.6%) were called active. 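G2 share is only a proxy for re-replication; each gene was hit by three separate siRNAs, and active genes were retested.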 Raw values are not corrected between plates. A number with no mark means an inactive call. Reagents against one gene are numbered here. The record does not give: the amount of reagent.

| gene symbol | reagent | G2 robust z-score | G2 cells, % of GMNN control | raw share of cells in G2 (%) |
| --- | --- | --- | --- | --- |
| C11orf52 (GeneID 91894) | 1 | -0.922 | -3.52 | 2.59 |
| C11orf52 (GeneID 91894) | 2 | 0.284 | 4.97 | 4.56 |
| C11orf52 (GeneID 91894) | 3 | -0.246 | 1.24 | 3.32 |
| C12orf56 (GeneID 115749) | 1 | -0.75 | -2.31 | 3.17 |
| C12orf56 (GeneID 115749) | 2 | 1.62 | 14.3 | 7.61 |
| C12orf56 (GeneID 115749) | 3 | -0.709 | -2.02 | 1.23 |
| OR7G3 (GeneID 390883) | 1 | 4.23 | 32.7 | 15.7 |
| OR7G3 (GeneID 390883) | 2 | -0.555 | -0.94 | 3.14 |
| OR7G3 (GeneID 390883) | 3 | 1.27 | 11.9 | 9.74 |
| HSD11B1 (GeneID 3290) | 1 | 0.822 | 8.75 | 8.22 |
| HSD11B1 (GeneID 3290) | 2 | -0.131 | 2.05 | 4.95 |
| HSD11B1 (GeneID 3290) | 3 | -0.873 | -3.18 | 4.47 |
| RBM3 (GeneID 5935) | 1 | -0.585 | -1.15 | 3.76 |
| RBM3 (GeneID 5935) | 2 | -0.483 | -0.429 | 4.83 |
| RBM3 (GeneID 5935) | 3 | 0.212 | 4.46 | 6.38 |
| GK (GeneID 2710) | 1 | 0.381 | 5.65 | 6.02 |
| GK (GeneID 2710) | 2 | -0.73 | -2.17 | 4.89 |
| GK (GeneID 2710) | 3 | -0.272 | 1.06 | 5.77 |
| KLHL17 (GeneID 339451) | 1 | -0.715 | -2.06 | 3.53 |
| KLHL17 (GeneID 339451) | 2 | 2.45 | 20.2 | 14.6 |
| KLHL17 (GeneID 339451) | 3 | -0.95 | -3.72 | 3.51 |
| COX16 (GeneID 51241) | 1 | -0.197 | 1.58 | 4.46 |
| COX16 (GeneID 51241) | 2 | -0.0184 | 2.84 | 5.62 |
| COX16 (GeneID 51241) | 3 | 2.38 | 19.7 | 9.47 |
| AKR1C2 (GeneID 1646) | 1 | -0.836 | -2.92 | 3.09 |
| AKR1C2 (GeneID 1646) | 2 | 4.5 | 34.6 | 17.6 |
| AKR1C2 (GeneID 1646) | 3 | 1.41 | 12.9 | 9.56 |
| VPS29 (GeneID 51699) | 1 | -0.525 | -0.728 | 5.62 |
| VPS29 (GeneID 51699) | 2 | 2.05 | 17.4 | 10.5 |
| VPS29 (GeneID 51699) | 3 | 0.741 | 8.18 | 7.27 |
| BTF3L4 (GeneID 91408) | 1 | -0.941 | -3.65 | 3.1 |
| BTF3L4 (GeneID 91408) | 2 | 0.637 | 7.45 | 9.13 |
| BTF3L4 (GeneID 91408) | 3 | -1.09 | -4.72 | 2.94 |
| SATB2 (GeneID 23314) | 1 | 1.01 | 10.1 | 7.32 |
| SATB2 (GeneID 23314) | 2 | 0.982 | 9.88 | 10.3 |
| SATB2 (GeneID 23314) | 3 | 0.862 | 9.03 | 7.18 |
| SIGLECL1 (GeneID 284369) | 1 | 0.0751 | 3.5 | 4.92 |
| SIGLECL1 (GeneID 284369) | 2 | 4.45 | 34.3 | 16.3 |
| SIGLECL1 (GeneID 284369) | 3 | 0.573 | 7 | 5.4 |
| TSPYL2 (GeneID 64061) | 1 | -0.825 | -2.83 | 1.79 |
| TSPYL2 (GeneID 64061) | 2 | -0.567 | -1.02 | 5.45 |
| TSPYL2 (GeneID 64061) | 3 | 1.47 | 13.3 | 7.81 |
| GET4 (GeneID 51608) | 1 | 0.736 | 8.14 | 6.52 |
| GET4 (GeneID 51608) | 2 | 2.95 | 23.7 | 14.3 |
| GET4 (GeneID 51608) | 3 | 0.201 | 4.38 | 4.64 |
| VTCN1 (GeneID 79679) | 1 | 3.73 | 29.2 | 16.6 |
| VTCN1 (GeneID 79679) | 2 | 2.45 | 20.2 | 13.1 |
| VTCN1 (GeneID 79679) | 3 | 3.47 | 27.4 | 9.86 |
| SLFN14 (GeneID 342618) | 1 | -0.452 | -0.212 | 3.91 |
| SLFN14 (GeneID 342618) | 2 | -0.289 | 0.938 | 3.67 |
| SLFN14 (GeneID 342618) | 3 | -0.0664 | 2.5 | 5.2 |
| ROBO4 (GeneID 54538) | 1 | -1.56 | -8.04 | 2.31 |
| ROBO4 (GeneID 54538) | 2 | -1.13 | -4.98 | 2.4 |
| ROBO4 (GeneID 54538) | 3 | 1.18 | 11.3 | 8.13 |
| TRIP12 (GeneID 9320) | 1 | -0.247 | 1.23 | 5.69 |
| TRIP12 (GeneID 9320) | 2 | 3.33 | 26.4 | 14.2 |
| TRIP12 (GeneID 9320) | 3 | -0.365 | 0.399 | 4.72 |
| HECTD4 (GeneID 283450) | 1 | 0.804 | 8.62 | 6.69 |
| HECTD4 (GeneID 283450) | 2 | -0.677 | -1.79 | 2.36 |
| HECTD4 (GeneID 283450) | 3 | -0.998 | -4.06 | 1.48 |
| HECTD4 (GeneID 283450) | 4 | -0.977 | -3.91 | 2.22 |
| HECTD4 (GeneID 283450) | 5 | 0.148 | 4.01 | 4.6 |
| HECTD4 (GeneID 283450) | 6 | 6.17 (active) | 46.4 | 17.4 |
| KRTAP19-3 (GeneID 337970) | 1 | 8.16 (active) | 60.4 | 24.7 |
| KRTAP19-3 (GeneID 337970) | 2 | 1.9 | 16.3 | 10.4 |
| KRTAP19-3 (GeneID 337970) | 3 | -1.9 | -10.4 | 0 |
| SORBS3 (GeneID 10174) | 1 | 3.01 | 24.2 | 16 |
| SORBS3 (GeneID 10174) | 2 | -0.84 | -2.94 | 2.89 |
| SORBS3 (GeneID 10174) | 3 | -0.828 | -2.86 | 4.45 |
| OPN1MW (GeneID 2652) | 1 | 0.063 | 3.41 | 7.06 |
| OPN1MW (GeneID 2652) | 2 | -0.107 | 2.21 | 5.29 |
| OPN1MW (GeneID 2652) | 3 | -1.15 | -5.09 | 1.71 |
| CTAGE6 (GeneID 340307) | 1 | -0.977 | -3.9 | 2.65 |
| CTAGE6 (GeneID 340307) | 2 | 0.77 | 8.39 | 6.93 |
| CTAGE6 (GeneID 340307) | 3 | -0.799 | -2.66 | 3.12 |
| DECR1 (GeneID 1666) | 1 | -0.935 | -3.61 | 2.85 |
| DECR1 (GeneID 1666) | 2 | 1.04 | 10.3 | 8.64 |
| DECR1 (GeneID 1666) | 3 | -0.117 | 2.15 | 5.78 |
| NRXN2 (GeneID 9379) | 1 | 0.888 | 9.21 | 8.69 |
| NRXN2 (GeneID 9379) | 2 | -0.144 | 1.96 | 5.55 |
| NRXN2 (GeneID 9379) | 3 | -0.27 | 1.07 | 3.57 |
| SPR (GeneID 6697) | 1 | 0.305 | 5.12 | 7.4 |
| SPR (GeneID 6697) | 2 | -0.0751 | 2.44 | 5.38 |
| SPR (GeneID 6697) | 3 | 0.874 | 9.11 | 6.97 |
| SMO (GeneID 6608) | 1 | 5.35 (active) | 40.6 | 20.4 |
| SMO (GeneID 6608) | 2 | 0.199 | 4.37 | 6.04 |
| SMO (GeneID 6608) | 3 | 1.04 | 10.3 | 6.42 |
